PubChem BioAssay AID1671190 (National Center for Advancing Translational Sciences (NCATS), 2021)
Values joined by “and” are separate entries in the source; they are usually repeats but may differ in a detail not shown here. Equal entries are not always repeated. The campaign covered roughly 580,000 compounds. About 6,100 (1.1%) were called active. The shares of active, inactive and inconclusive entries below differ from those in the screen. Calls come from the whole dose curve; as a rule, active = well fitted inhibition curve with a large enough effect; inconclusive = small, poorly fitted or top-dose-only effect, or another doubt; inactive = no such curve, though single readings can be large or run the other way. A potency beside an inconclusive call is a rough fit, not a confirmed value.

The chains behind the UniProt entries cited, without tags or fusion partners. Where a name states a change or a piece, a line headed by the entry shows the natural chain unless it says otherwise.
UniProt P18054: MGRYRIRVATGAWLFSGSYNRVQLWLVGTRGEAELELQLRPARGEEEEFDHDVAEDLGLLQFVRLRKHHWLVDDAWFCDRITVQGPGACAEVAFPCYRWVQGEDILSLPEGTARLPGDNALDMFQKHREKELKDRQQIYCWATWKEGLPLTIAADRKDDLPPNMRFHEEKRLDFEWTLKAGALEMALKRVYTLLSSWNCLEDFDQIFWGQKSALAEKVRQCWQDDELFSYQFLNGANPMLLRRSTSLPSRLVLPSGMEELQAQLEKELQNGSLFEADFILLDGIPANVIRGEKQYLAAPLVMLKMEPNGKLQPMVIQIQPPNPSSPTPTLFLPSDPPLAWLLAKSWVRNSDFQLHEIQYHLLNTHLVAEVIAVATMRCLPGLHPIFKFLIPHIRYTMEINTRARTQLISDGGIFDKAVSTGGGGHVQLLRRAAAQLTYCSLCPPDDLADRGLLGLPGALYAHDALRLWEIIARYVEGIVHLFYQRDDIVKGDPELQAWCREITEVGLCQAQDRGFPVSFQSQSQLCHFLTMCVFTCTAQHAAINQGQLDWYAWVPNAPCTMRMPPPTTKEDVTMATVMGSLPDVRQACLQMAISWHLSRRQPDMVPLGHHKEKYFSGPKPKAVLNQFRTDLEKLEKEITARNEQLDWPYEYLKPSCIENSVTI

Biological target: Polyunsaturated fatty acid lipoxygenase ALOX12 (Homo sapiens) (UniProt P18054)
Assay: Primary qHTS assay for inhibitors of human arachidonate 12S-lipoxygenase (ALOX12): Round 2
Conditions: purified 12hLO, xylenol orange hydroperoxide absorbance; activity change, negative = inhibition: at 108 µM (top of the series) unless noted
Summary of the method: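 Purified human 12hLO (150 nM final) in 25 mM Hepes, 0.01% Triton X-100, pH 7.0 was preincubated 15 min at room temperature with compound. Then 40 uM arachidonic acid was added, 30 min. Hydroperoxide was read by Fe-XO absorbance ratio 573/405 nm.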
% is set by controls: 0 for no effect and ±100 for the full control effect; potency is the fitted concentration of half-maximal effect.

Structure (SMILES)	Potency	activity change, negative = inhibition
Cc1ccc(C(=O)N(C)C2CCCc3ccccc32)cc1 (stereo not drawn)	inconclusive: 28.2 µM [inhibitor, full curve]	
C/C=C/c1ccc(OCCCCNCc2ccco2)c(OC)c1	inactive	
Cc1ccc(NC(=O)N/C=C/c2ccco2)cc1C	active: 28.2 µM	
COC[C@@H]1CN(C(=O)c2ccc(C#N)cc2)C[C@H]1c1ccncc1	inactive	
OCCN(Cc1ccccc1)Cc1cccc(C(F)(F)F)c1	inconclusive: 0.316 µM [inhibitor, full curve, poor fit]	
Cn1c(=O)c2c(ncn2CCC(=O)NC(C)(C)C)n(C)c1=O	inactive	
Cc1ccc(NC(=O)COC(=O)CCNS(=O)(=O)c2c(Cl)cccc2Cl)cc1	inconclusive: 79.4 µM [inhibitor, partial curve, poor fit]	
CCOC(=O)C1=C(COC(=O)c2ccc3ccccc3c2O)NC(=O)NC1C (stereo not drawn)	active: 39.8 µM	
Cc1c(N=c2scc(-c3ccccc3)n2C)c(=O)n(-c2ccccc2)n1C	inactive	
COc1ccc(CNc2nc3c(c(=O)n(Cc4ccc(Br)cc4)c(=O)n3C)n2C)cc1	inactive	
CCOC(=O)N1CCc2c(sc3c2c(=O)n(-c2ccc(F)cc2)c(=O)n3CC(=O)c2ccc(Cl)cc2)C1	inconclusive: 12.6 µM [inhibitor, partial curve, poor fit]	
CCn1c(SCC(=O)Nc2nccs2)nnc1-c1ccccc1	inconclusive: 89.1 µM [inhibitor, single point]	
Cc1ccc(NS(=O)(=O)c2ccc3c(c2)-c2oncc2CO3)cc1F	inconclusive: 35.5 µM [inhibitor, partial curve, poor fit]	
CC(C(=O)N1CCCCC1)N(C)CC(=O)Nc1ccc(F)c(F)c1F (stereo not drawn)	inactive	
CCCCOc1ccc(OC(=O)c2cccnc2)cc1	inactive	
CCOC(=O)c1sc(N)c(C#N)c1COC(=O)C12CC3CC(CC(O)(C3)C1)C2	inconclusive: 44.7 µM [inhibitor, partial curve, poor fit]	
Cc1ccccc1N=Cc1cc2c(cc1[N+](=O)[O-])OCO2	inconclusive: 50.1 µM [inhibitor, partial curve, poor fit]	
CC(=O)N1c2ccc3ccccc3c2C(C)CC12CCCCC2 (stereo not drawn)	inactive	
COC(=O)CSc1nc(C(C)C)nc2ccccc12	inactive	
CCc1ccc(NS(=O)(=O)c2ccc(-c3cc(C)no3)cc2)cc1		inconclusive: -35.4% [inhibitor]
Nc1ccc(Oc2ccccc2-c2ccccc2)cc1	inconclusive: 112 µM [inhibitor, single point]	
O=C1CCN(C(=O)C2CCN(C(=O)COc3ccc(F)cc3)CC2)CCCCCCN1	inactive	
Cc1ccc2nc(NNC(=O)c3ccc(S(=O)(=O)N4CCc5ccccc5C4)cc3)sc2c1	inconclusive: 1.41 µM [inhibitor, full curve, poor fit]	

Some of the entries so far, with bars between the fields.
Structure (SMILES) | Potency | activity change, negative = inhibition
Cn1c(=O)c2c(ncn2CCC(=O)NC(C)(C)C)n(C)c1=O | inactive | 
Cc1ccc(NC(=O)COC(=O)CCNS(=O)(=O)c2c(Cl)cccc2Cl)cc1 | inconclusive: 79.4 µM [inhibitor, partial curve, poor fit] | 
CCOC(=O)C1=C(COC(=O)c2ccc3ccccc3c2O)NC(=O)NC1C (stereo not drawn) | active: 39.8 µM | 
Cc1c(N=c2scc(-c3ccccc3)n2C)c(=O)n(-c2ccccc2)n1C | inactive | 
COc1ccc(CNc2nc3c(c(=O)n(Cc4ccc(Br)cc4)c(=O)n3C)n2C)cc1 | inactive | 
CCOC(=O)N1CCc2c(sc3c2c(=O)n(-c2ccc(F)cc2)c(=O)n3CC(=O)c2ccc(Cl)cc2)C1 | inconclusive: 12.6 µM [inhibitor, partial curve, poor fit] | 

More results

Structure (SMILES)	Potency	activity change, negative = inhibition
O=C(Nc1ccccc1)C1=C[C@H](c2ccc3c(c2)OCO3)C[C@H](OCCCCO)O1	inconclusive: 15.8 µM [inhibitor, partial curve, poor fit]	
CCOc1ccc(NS(=O)(=O)c2cc(C(=O)N3CCCC3)ccc2Cl)cc1	inconclusive: 112 µM [inhibitor, single point]	
COc1ccc([C@H]2N[C@]3(CCCN(Cc4ccc(Cl)cc4)C3=O)[C@H]3C(=O)N(Cc4ccccc4)C(=O)[C@@H]23)cc1	inconclusive: 35.5 µM [inhibitor, partial curve]	
Cc1ccc(-c2n[nH]c(=O)c3ccccc23)cc1S(=O)(=O)Nc1ccc(F)cc1	inconclusive: 79.4 µM [inhibitor, partial curve, poor fit]	
COc1ccc(Nc2cc(C)c3c(O)cccc3n2)cc1	inconclusive: 89.1 µM [inhibitor, partial curve, poor fit] and inconclusive: 50.1 µM [inhibitor, partial curve, poor fit]	
COc1ccc2nc(N3CCCC(C(=O)NCCCN4C(C)CCCC4C)C3)sc2c1 (stereo not drawn)	inconclusive: 126 µM [inhibitor, single point]	
CC(C)CN1CCn2c(nc3cc(C(=O)NC(C)C)ccc32)C1	inactive	
CNC(=S)Nc1cccc(Cl)c1C	inconclusive: 44.7 µM [inhibitor, partial curve, poor fit]	
COc1ccccc1NC(=O)N1CCc2[nH]c3ccc(F)cc3c2C1	inconclusive: 50.1 µM [inhibitor, partial curve, poor fit]	
Cc1ccc(CN2C(=O)CSCC2(C)C(=O)Nc2c(C)cccc2C)cc1 (stereo not drawn)	inconclusive: 126 µM [inhibitor, single point]	
O=C(c1ccc(Cl)cc1Cl)C(Br)C(O)C(Cl)(Cl)Cl (stereo not drawn)	inconclusive: 50.1 µM [inhibitor, partial curve, poor fit]	
Cc1nc2ccc(Cl)cc2cc1C(=O)N(C)CC1COc2ccccc2O1 (stereo not drawn)	inconclusive: 56.2 µM [inhibitor, single point]	
CNc1ncc(CN(C)C(=O)CCc2cc3n(n2)CCCNC3)cn1	inconclusive: 7.94 µM [inhibitor, full curve]	
CCN(Cc1ccccc1)CC(O)COc1ccccc1 (stereo not drawn)	inconclusive: 3.55 µM [inhibitor, full curve, poor fit]	
N#Cc1ccc(S(=O)(=O)N2CC(n3cc(C(=O)NCc4ccccc4)nn3)C2)cc1	inconclusive: 79.4 µM [inhibitor, partial curve, poor fit]	
CNC(=O)c1ccc(-c2cnc3ncc(Cc4ccc5ncccc5c4)n3n2)cc1F	inconclusive: 38.5 µM [inhibitor, single point]	
O=C(O)CC/C(=N\NC(=O)c1ccncc1)c1ccccc1	inactive	
Cc1ccc(S(=O)(=O)N2CCOCC2)cc1C(=O)N1CCc2ccccc21	inconclusive: 112 µM [inhibitor, single point]	
CCOc1ccc(C(=O)NCC(c2ccc(Cl)cc2)N2CCCCC2)cc1 (stereo not drawn)	inactive	
Cc1ccc(C2CN=NC23CCc2ccccc2C3=O)cc1 (stereo not drawn)	inconclusive: 14.1 µM [inhibitor, partial curve, poor fit]	
Cc1ccc(NC(=O)C(Sc2nnc(-c3ccco3)n2N)c2ccccc2)cc1 (stereo not drawn)	inconclusive: 39.8 µM [inhibitor, partial curve, poor fit]	
Cc1ccccc1NC(=S)NC(=O)c1cncc(Br)c1	inconclusive: 44.7 µM [inhibitor, partial curve, poor fit]	
Cn1c(SCc2c(F)cccc2Cl)nc2c(c1=O)SCC2	inconclusive: 89.1 µM [inhibitor, partial curve, poor fit]	

Structure (SMILES)	Potency	activity change, negative = inhibition
O=C(/C=C/Sc1ccccc1)c1ccc(Cl)cc1	inactive	
CCc1ccc(NC(=S)N(Cc2ccccc2)Cc2cccs2)cc1	inconclusive: 50.1 µM [inhibitor, partial curve, poor fit]	
O=C(Cn1ncc2c3ccccc3n(Cc3cccc(Cl)c3)c2c1=O)NCCCN1CCCCC1	inconclusive: 50.1 µM [inhibitor, partial curve, poor fit]	
O=C1c2ccccc2NC(c2cc(Cl)cc(Cl)c2O)N1CCc1ccccn1 (stereo not drawn)	inconclusive: 100 µM [inhibitor, single point]	
COc1cc(NC(=O)N2CCc3nc(NCc4cccc(Oc5ccccc5)c4)ncc3C2)cc(OC)c1OC	inactive	
Cc1ccc(C)c(N2CCN(S(=O)(=O)c3ccc(-c4cnc(C5CC5)o4)cc3)CC2)c1	inactive	
COCCN1CCC(N2CCN(S(=O)(=O)Cc3cccc(Cl)c3)CC2)C1=O (stereo not drawn)	inconclusive: 14.1 µM [inhibitor, partial curve]	
O=C(O)c1cc2c(s1)CN(C1CCCC1)C2	inconclusive: 25.1 µM [inhibitor, full curve]	
O=[N+]([O-])c1ccc(/C=C2\CCC(C3=CCCC3)=C2N2CCOCC2)cc1	inconclusive: 17.8 µM [inhibitor, partial curve, poor fit]	
CCOc1ccccc1CN1CCc2nc(N3CCN(C)CC3)ncc2C1	inconclusive: 112 µM [inhibitor, single point]	
Cc1ccnc(NC(=O)CCC(=O)N(CC(=O)NCc2ccccc2)c2ccc3c(c2)OCO3)c1	inactive	
O=C(CCS(=O)(=O)c1ccc(Br)cc1)N1CCN(Cc2ccccc2)CC1	inactive	
Cc1ccc(C)c(N2CCN(C(=O)C3CCN(c4nc(C)cc(C)n4)CC3)CC2)c1	inactive	
COc1ccc(-c2cn3cccnc3n2)cc1NC(=O)Nc1cc(C)ccc1C	inconclusive: 112 µM [inhibitor, single point]	
COc1ccc(CNCc2ccc3c(c2)OCO3)cc1Br	inconclusive: 3.98 µM [inhibitor, full curve, poor fit]	
Cc1ccc2c(c1)N(C)/C(=C/c1cccc[n+]1C)S2	inconclusive: 35.5 µM [inhibitor, partial curve, poor fit]	
COc1cc(C(=O)OCC(=O)NC2CCC(C)CC2)cc(Cl)c1OC (stereo not drawn)	inactive	
O=[N+]([O-])c1ccccc1Nc1c2ccccc2nc2ccccc12	inactive	
CCC(CC)C(=O)N1N=C(c2ccc(NS(C)(=O)=O)cc2)CC1c1ccccc1 (stereo not drawn)		inconclusive: -62.7% [inhibitor]
O=C(NCCc1ccco1)c1cc(COc2cccc(C(F)(F)F)c2)on1	inactive	
COCc1cc(CN2CCN(C)CC2)c(O)c2ncccc12	inactive	
S=C(Nc1ccccc1Cl)N(CCCN1CCOCC1)Cc1ccccn1	inconclusive: 100 µM [inhibitor, single point]	
